Some targets named below: FLAG-DIDO3 (UniProt Q9BTC0); FLAG-DIDO3 ∆SPOC (UniProt Q9BTC0); FLAG-DIDO3 ∆N.
Holding throughout (test): affinity purification with mass spectrometry; anti-FLAG M2 magnetic beads on lysates of HEK293T transfected with FLAG-DIDO constructs (50 mM Tris-Cl pH 8, 150 mM NaCl, 0.1% Triton, benzonase), 2 h at 4 °C; against empty vector; three replicates

Protein sequences, listed by entry. Tags and fused reporters are not part of them. Lines headed by an entry give the natural chain unless they say otherwise; changes in a name come on top.
UniProt Q9BTC0: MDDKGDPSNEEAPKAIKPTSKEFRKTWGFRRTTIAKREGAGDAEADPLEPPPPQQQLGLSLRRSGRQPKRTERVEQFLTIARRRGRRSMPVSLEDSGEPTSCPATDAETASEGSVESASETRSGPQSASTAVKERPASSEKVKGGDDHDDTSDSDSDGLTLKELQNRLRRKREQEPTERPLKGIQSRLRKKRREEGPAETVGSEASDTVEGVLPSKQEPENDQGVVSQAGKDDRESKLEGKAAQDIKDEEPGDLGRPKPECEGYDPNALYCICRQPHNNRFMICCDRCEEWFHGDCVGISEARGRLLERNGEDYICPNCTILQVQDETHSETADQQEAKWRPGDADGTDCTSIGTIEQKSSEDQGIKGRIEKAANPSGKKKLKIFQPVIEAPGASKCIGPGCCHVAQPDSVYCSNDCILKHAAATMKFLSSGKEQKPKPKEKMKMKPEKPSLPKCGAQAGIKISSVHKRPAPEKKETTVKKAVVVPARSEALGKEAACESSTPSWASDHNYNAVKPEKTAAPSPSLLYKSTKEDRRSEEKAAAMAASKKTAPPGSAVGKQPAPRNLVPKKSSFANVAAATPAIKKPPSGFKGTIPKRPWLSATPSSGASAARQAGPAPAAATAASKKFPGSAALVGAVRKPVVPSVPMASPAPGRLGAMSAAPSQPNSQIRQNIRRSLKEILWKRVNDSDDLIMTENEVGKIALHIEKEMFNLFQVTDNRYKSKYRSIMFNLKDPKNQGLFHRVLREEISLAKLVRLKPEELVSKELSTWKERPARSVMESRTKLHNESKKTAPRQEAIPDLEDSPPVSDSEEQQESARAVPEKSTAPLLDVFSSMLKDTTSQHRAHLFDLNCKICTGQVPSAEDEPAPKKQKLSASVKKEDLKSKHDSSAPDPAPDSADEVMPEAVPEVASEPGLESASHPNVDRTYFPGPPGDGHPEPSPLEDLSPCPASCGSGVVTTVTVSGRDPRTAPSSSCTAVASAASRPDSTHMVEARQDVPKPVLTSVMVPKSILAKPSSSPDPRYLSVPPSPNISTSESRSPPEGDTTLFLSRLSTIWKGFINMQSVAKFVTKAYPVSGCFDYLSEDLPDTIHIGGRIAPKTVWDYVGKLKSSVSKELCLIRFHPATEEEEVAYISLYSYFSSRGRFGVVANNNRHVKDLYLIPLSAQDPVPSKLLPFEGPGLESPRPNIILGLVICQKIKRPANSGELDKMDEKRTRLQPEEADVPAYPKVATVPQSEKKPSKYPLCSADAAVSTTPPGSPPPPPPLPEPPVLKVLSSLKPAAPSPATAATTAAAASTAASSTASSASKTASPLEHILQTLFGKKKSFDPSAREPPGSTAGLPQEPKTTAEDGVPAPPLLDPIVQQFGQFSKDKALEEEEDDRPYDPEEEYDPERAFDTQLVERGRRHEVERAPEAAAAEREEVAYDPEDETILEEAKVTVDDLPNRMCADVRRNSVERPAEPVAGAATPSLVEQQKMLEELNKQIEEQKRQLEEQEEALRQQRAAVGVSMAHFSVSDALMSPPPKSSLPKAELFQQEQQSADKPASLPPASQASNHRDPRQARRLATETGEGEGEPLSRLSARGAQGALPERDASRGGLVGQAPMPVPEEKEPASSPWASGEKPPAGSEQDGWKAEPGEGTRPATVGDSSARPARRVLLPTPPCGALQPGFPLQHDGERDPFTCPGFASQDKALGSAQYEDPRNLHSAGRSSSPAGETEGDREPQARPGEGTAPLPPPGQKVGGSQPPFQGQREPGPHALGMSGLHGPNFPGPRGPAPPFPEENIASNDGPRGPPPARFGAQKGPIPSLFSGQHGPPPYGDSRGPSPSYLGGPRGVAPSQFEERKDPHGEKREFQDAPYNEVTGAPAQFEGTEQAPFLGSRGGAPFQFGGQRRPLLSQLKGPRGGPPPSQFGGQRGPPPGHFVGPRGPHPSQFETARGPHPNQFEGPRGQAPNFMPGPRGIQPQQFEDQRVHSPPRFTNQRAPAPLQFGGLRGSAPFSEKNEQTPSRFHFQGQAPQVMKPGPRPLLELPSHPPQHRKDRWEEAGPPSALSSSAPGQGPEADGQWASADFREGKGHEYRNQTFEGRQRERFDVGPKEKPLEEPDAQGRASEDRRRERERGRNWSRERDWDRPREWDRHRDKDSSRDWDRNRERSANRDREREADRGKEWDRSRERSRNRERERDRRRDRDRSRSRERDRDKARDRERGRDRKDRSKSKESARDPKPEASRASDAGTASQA
UniProt P21127: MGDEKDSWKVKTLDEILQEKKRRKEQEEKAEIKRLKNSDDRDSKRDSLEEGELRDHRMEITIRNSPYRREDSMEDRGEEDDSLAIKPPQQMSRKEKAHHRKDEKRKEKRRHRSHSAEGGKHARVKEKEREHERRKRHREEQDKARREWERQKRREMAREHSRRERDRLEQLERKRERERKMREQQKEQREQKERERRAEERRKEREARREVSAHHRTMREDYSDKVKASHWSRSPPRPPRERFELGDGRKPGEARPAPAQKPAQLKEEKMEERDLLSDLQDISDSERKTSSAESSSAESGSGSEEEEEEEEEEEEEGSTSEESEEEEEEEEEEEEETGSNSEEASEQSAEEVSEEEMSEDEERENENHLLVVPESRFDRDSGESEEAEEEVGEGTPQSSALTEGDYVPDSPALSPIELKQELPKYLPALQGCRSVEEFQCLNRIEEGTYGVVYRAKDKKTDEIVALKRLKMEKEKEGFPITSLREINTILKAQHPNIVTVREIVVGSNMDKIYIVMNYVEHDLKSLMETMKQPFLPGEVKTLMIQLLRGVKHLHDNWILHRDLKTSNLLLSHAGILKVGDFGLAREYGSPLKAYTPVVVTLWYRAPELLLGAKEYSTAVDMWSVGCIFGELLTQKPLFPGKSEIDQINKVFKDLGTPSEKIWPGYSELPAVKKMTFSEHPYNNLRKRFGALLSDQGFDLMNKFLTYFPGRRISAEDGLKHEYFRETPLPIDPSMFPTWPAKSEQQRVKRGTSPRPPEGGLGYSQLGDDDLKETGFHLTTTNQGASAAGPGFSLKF
UniProt Q5SSJ5: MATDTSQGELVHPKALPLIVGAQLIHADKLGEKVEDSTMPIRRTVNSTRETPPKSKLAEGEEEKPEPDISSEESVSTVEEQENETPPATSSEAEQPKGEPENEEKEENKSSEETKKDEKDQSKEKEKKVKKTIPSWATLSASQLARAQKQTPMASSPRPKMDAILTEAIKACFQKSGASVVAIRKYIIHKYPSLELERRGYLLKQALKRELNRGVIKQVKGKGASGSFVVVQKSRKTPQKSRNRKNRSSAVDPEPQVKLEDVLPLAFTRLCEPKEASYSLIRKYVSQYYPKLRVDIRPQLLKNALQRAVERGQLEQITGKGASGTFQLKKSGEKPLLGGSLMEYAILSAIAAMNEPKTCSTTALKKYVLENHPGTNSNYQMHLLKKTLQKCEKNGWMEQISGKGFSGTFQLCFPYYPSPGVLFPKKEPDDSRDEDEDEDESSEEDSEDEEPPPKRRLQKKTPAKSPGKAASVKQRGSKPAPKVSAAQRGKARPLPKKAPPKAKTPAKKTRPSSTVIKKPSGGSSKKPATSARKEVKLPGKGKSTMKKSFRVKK
UniProt P09874: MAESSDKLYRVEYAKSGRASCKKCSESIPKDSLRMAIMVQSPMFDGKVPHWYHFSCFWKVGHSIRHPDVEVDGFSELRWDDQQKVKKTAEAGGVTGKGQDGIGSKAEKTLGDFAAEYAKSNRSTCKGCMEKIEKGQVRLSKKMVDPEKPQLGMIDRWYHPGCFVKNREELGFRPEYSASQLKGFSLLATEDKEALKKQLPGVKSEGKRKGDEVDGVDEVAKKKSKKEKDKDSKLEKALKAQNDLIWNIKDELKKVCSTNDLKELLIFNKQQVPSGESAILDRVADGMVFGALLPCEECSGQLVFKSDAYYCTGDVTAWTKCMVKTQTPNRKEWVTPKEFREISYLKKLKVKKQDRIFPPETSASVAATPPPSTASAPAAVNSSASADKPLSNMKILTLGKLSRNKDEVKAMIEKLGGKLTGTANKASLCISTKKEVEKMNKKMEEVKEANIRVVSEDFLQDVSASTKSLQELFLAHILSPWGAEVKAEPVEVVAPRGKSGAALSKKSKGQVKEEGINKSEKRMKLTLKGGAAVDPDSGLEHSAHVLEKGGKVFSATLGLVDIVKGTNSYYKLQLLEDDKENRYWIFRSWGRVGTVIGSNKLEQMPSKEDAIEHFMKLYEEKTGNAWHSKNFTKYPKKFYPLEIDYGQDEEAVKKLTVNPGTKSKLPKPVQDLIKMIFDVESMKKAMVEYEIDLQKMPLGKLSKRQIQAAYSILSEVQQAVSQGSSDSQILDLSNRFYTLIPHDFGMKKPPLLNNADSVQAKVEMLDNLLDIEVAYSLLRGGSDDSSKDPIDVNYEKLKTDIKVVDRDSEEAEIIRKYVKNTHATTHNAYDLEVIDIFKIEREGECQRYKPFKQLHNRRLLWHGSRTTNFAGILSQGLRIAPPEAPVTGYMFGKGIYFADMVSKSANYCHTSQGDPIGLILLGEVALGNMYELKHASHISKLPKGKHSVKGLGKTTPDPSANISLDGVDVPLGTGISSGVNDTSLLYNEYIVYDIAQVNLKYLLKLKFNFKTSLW
UniProt Q9UGN5: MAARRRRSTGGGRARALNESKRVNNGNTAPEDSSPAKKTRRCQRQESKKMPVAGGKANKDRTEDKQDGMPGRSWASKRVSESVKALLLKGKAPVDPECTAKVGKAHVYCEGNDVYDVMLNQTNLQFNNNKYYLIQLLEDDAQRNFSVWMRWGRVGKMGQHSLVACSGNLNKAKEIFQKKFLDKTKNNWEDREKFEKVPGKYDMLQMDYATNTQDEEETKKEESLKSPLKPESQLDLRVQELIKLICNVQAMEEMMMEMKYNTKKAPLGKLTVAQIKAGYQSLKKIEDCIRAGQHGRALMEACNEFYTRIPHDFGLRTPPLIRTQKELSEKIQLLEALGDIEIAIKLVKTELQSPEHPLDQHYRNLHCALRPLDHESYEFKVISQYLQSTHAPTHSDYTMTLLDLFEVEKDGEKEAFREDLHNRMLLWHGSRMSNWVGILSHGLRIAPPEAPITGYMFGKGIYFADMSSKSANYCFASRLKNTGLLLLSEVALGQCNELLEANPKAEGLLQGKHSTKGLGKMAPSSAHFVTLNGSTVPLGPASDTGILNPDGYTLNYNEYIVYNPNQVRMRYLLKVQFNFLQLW
UniProt P18887: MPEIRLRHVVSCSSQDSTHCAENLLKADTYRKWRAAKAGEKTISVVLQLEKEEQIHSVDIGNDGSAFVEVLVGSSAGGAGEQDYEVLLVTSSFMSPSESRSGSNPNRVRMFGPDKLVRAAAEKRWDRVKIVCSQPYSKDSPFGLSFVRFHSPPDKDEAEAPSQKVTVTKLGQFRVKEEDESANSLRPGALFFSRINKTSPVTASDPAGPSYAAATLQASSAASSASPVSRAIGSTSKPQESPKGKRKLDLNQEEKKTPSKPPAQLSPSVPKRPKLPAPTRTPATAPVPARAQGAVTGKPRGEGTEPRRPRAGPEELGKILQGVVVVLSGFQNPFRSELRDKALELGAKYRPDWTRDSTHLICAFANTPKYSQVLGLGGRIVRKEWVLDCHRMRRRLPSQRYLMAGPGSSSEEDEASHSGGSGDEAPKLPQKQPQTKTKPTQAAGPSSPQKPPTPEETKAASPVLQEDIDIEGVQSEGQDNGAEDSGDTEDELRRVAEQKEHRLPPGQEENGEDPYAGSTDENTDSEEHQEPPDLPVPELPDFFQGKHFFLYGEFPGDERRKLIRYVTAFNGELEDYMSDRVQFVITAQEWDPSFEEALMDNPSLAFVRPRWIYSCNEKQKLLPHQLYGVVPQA
UniProt P67809: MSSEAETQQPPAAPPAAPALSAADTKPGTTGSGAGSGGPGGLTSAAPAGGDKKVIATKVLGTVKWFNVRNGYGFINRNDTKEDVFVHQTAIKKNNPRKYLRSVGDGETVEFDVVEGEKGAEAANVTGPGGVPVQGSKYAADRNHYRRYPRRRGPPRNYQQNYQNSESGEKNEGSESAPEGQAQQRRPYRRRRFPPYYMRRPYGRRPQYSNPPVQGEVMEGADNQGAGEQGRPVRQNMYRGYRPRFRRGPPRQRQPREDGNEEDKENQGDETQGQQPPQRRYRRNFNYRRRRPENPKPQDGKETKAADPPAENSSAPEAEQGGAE
UniProt O75367: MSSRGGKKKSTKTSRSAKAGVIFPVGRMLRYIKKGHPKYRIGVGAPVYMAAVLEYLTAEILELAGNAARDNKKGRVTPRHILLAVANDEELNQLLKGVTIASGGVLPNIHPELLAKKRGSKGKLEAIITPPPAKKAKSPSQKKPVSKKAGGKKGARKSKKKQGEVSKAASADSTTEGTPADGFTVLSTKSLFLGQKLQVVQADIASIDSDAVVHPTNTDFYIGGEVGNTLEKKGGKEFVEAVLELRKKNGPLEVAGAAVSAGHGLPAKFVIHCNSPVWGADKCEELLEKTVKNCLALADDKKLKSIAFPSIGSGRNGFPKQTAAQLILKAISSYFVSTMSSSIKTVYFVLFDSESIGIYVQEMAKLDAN

Results are given in words; binding and its absence hold for the method and conditions named. Binding seen in cells or lysates may run through a third protein. These calls come from enrichment with a bait or labelling near it, and not all partners need be listed. For some assays here: A no says only that the protein was not detected with the bait.

Regarding “CDK11B (from UniProt P21127 1-795) (enzyme)”, the binding entry in the experiment with FLAG-DIDO3 is recorded as “binds”.
Same read-out and setting: the result for HP1BP3 (from UniProt Q5SSJ5 1-553) reads “binds”; that for “PARP1 (from UniProt P09874 1-1014) (enzyme)”, “binds”.
“PARP2 (from UniProt Q9UGN5 1-583) (enzyme)”: in the experiment with FLAG-DIDO3, the binding result is “binds”.
With XRCC1 (from UniProt P18887 1-633), in the experiment with FLAG-DIDO3, the binding entry is recorded as “binds”.
On the same count and under the same terms, the result for YB1 (from UniProt P67809 1-324) reads “binds”.
Take macroH2A.1 (from UniProt O75367 1-369): the binding result in the experiment with FLAG-DIDO3 and with FLAG-DIDO3 ∆SPOC was “binds” throughout.

B1: HIRIP3 (protein, UniProt Q9BW71 1-556)
chain: MAREKEMQEFTRSFFRGRPDLSTLTHSIVRRRYLAHSGRSHLEPEEKQALKRLVEEELLKMQVDEAASREDKLDLTKKGKRPPTPCSDPERKRFRFNSESESGSEASSPDYFGPPAKNGVAAEVSPAKEENPRRASKAVEESSDEERQRDLPAQRGEESSEEEEKGYKGKTRKKPVVKKQAPGKASVSRKQAREESEESEAEPVQRTAKKVEGNKGTKSLKESEQESEEEILAQKKEQREEEVEEEEKEEDEEKGDWKPRTRSNGRRKSAREERSCKQKSQAKRLLGDSDSEEEQKEAASSGDDSGRDREPPVQRKSEDRTQLKGGKRLSGSSEDEEDSGKGEPTAKGSRKMARLGSTSGEESDLEREVSDSEAGGGPQGERKNRSSKKSSRKGRTRSSSSSSDGSPEAKGGKAGSGRRGEDHPAVMRLKRYIRACGAHRNYKKLLGSCCSHKERLSILRAELEALGMKGTPSLGKCRALKEQREEAAEVASLDVANIISGSGRPRRRTAWNPLGEAAPPGELYRRTLDSDEERPRPAPPDWSHMRGIISSDGESN
For the molecule B1, the binding result with FLAG-DIDO3 was “binds”; in the experiment with FLAG-DIDO3 ∆N, “no binding”.

B2: DEK (protein, UniProt P35659 1-375)
chain: MSASAPAAEGEGTPTQPASEKEPEMPGPREESEEEEDEDDEEEEEEEKEKSLIVEGKREKKKVERLTMQVSSLQREPFTIAQGKGQKLCEIERIHFFLSKKKTDELRNLHKLLYNRPGTVSSLKKNVGQFSGFPFEKGSVQYKKKEEMLKKFRNAMLKSICEVLDLERSGVNSELVKRILNFLMHPKPSGKPLPKSKKTCSKGSKKERNSSGMARKAKRTKCPEILSDESSSDEDEKKNKEESSDDEDKESEEEPPKKTAKREKPKQKATSKSKKSVKSANVKKADSSTTKKNQNSSKKESESEDSSDDEPLIKKLKKPPTDEELKETIKKLLASANLEEVTMKQICKKVYENYPTYDLTERKDFIKTTVKELIS
Regarding B2, the binding result with FLAG-DIDO3 is given as “binds”; with FLAG-DIDO3 ∆N, “no binding”.

B3: BANF1 (protein, UniProt O75531 1-89)
chain: MTTSQKHRDFVAEPMGEKPVGSLAGIGEVLGKKLEERGFDKAYVVLGQFLVLKKDEDLFREWLKDTCGANAKQSRDCFGCLREWCDAFL
For B3, the results for the binding entry in the experiment with FLAG-DIDO3 and with FLAG-DIDO3 ∆N were “binds” and “no binding”, respectively.

The values above are taken from PMC10689479.
